This is one part of the list. Shown are side measurements of this screen, not its main read-out; they come without a call. Most of these compounds were active or inconclusive in the main read-out, so they are no random draw. Potencies come from curve fits of mixed quality, noted in brackets.
Test: qHTS Assay for Lipid Storage Modulators in Drosophila S3 Cells;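 for cell number change: cells counted by Cell Tracker Red CMTPX staining in the red channel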
Settings: BODIPY lipid droplet fluorescence, 18-24 h; for cell number change: measured here: cell count max response, cells fed with added oleic acid
How it was run: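 Drosophila S3 cells got compounds at several concentrations plus oleic acid (400 uM solution). Laser-scanning cytometry with 488 nm excitation read lipid droplets at 500-530 nm and cells at 575-640 nm. Percent activity was relative to 20 uM Triacsin C.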

[1] = measured here: lipid fluorescence (Fed channel) AC50, cells fed with added oleic acid
[2] = measured here: cell number channel AC50, cells fed with added oleic acid

Row | SMILES | cell number change [%] | AC50 [1] | AC50 [2]
1 | Cc1ccc(N2C(=O)c3ccccc3C2Nc2ccc(S(=O)(=O)N3CCOCC3)cc2)nc1 (centres undefined) | -6.97 | 0.116 µM [rising, full curve, poor fit] | 
2 | CC(=O)Oc1ccc2c(C)cc(=O)oc2c1 | -0.849 | 29.1 µM [falling, single point] | 
3 | COc1cccc(SCc2noc(C(=O)NCc3ccccc3)c2C(=O)NCc2ccccc2)c1 | -4.4 | 6.51 µM [falling, single point] | 
4 | COc1cccc(N2CCN(S(=O)(=O)c3ccc(CN4C(=O)c5cccnc5C4=O)cc3)CC2)c1 | -5.9 | 29.1 µM [rising, single point] | 
5 | Cc1ccccc1NC(=O)C1CCCN1S(=O)(=O)c1cccc2cccnc12 (centres undefined) | -7.14 | 0.092 µM [rising, full curve] | 
6 | O=C(Cn1nnc2c(sc3nc4c(c(-c5ccccc5)c32)CCC4)c1=O)c1ccccc1 | -91.4 |  | 29.1 µM [falling, single point]
7 | CCOC(=O)Cc1csc(NC(=O)c2cnc3sc(C)cn3c2=O)n1 | 12 | 18.4 µM [falling, partial curve] | 2.31 µM [falling, partial curve, poor fit]
8 | Cc1cccc(N2CCN(C(=O)CSc3nnnn3C3CC3)CC2)c1C | -40.6 | 1.46 µM [falling, full curve, poor fit] | 29.1 µM [falling, partial curve]
9 | O=C(c1ccc(S(=O)(=O)N2CCC(c3nc4ccccc4[nH]3)CC2)cc1)N1CCOCC1 |  |  | 0.731 µM [rising, partial curve, poor fit]
10 | O=C(CCC(=O)c1ccc(F)cc1)NC1CCCN(Cc2ccccc2F)C1 (centres undefined) | -0.88 | 6.51 µM [rising, single point] | 
11 | Cc1ccc2oc(=O)n(Cc3ccccc3)c2c1 | 17.7 | 29.1 µM [rising, single point] | 
12 | Cc1cc(Cl)nc(SCC(=O)c2ccccc2)n1 | -21.4 | 0.206 µM [falling, full curve, poor fit] | 
13 | COc1ccc(CN2CCOCC2)cc1 | 2.33 | 0.58 µM [falling, full curve, poor fit] | 
14 | Cc1sc2nc(CN(C(=O)c3cccs3)C3CCCC3)[nH]c(=O)c2c1C | 51.8 | 5.17 µM [falling, single point] | 23.1 µM [rising, single point]
15 | Nn1c(SCC(=O)Nc2nccs2)nncc1=O | -6.49 | 0.116 µM [falling, full curve] | 
16 | Cc1sc2nc(SCC(=O)N3CCCC3)[nH]c(=O)c2c1C |  | 6.51 µM [falling, single point] | 
17 | Cc1ccc(C)c(-n2c3nc(=O)[nH]c(=O)c-3cc3cc([N+](=O)[O-])ccc32)c1 | 0.422 | 2.59 µM [falling, partial curve] | 
18 | CC1CCN(Cc2nnnn2CCCC(=O)N(C)C(C)c2ccccn2)CC1 (centres undefined) | -8.78 | 4.11 µM [rising, single point] | 

In another format: 2 of the compounds above.
CCOC(=O)Cc1csc(NC(=O)c2cnc3sc(C)cn3c2=O)n1
  cell number change [%]: 12; AC50 [1]: 18.4 µM [falling, partial curve]; AC50 [2]: 2.31 µM [falling, partial curve, poor fit]
Cc1sc2nc(SCC(=O)N3CCCC3)[nH]c(=O)c2c1C
  AC50 [1]: 6.51 µM [falling, single point]

Later entries

Row | SMILES | cell number change [%] | AC50 [1] | AC50 [2]
19 | COc1ccc(Cc2nnc(SC)[nH]c2=O)cc1OC | 2.73 | 0.146 µM [falling, full curve, poor fit] | 
20 | COc1ccccc1NC(=O)c1ccc(NC(=O)COC(=O)C2(C)CC2(Cl)Cl)cc1 (centres undefined) | 83.3 | 1.46 µM [rising, full curve, poor fit] | 10.3 µM [rising, partial curve]
21 | FC(F)(F)c1nc(NCC2CCCO2)c2nnn(Cc3ccccc3Cl)c2n1 (centres undefined) | 27.5 |  | 0.651 µM [rising, full curve, poor fit]
22 | Cc1ccccc1C(=O)NC(=S)Nc1ccc(S(=O)(=O)N2CCN(C)CC2)cc1 | 29.9 | 3.66 µM [rising, full curve] | 0.326 µM [rising, full curve, poor fit]
23 | CCOc1ccc(S(=O)(=O)NCc2ccncc2)cc1NC(=O)c1ccccc1F | 8.97 |  | 
24 | NC(=O)c1ccc(NC(=O)CCCc2nc(-c3ccccc3Cl)no2)cc1 | 58.7 | 2.59 µM [rising, full curve] | 2.06 µM [rising, full curve]
25 | CC(=O)Nc1ccccc1OCC(=O)N(Cc1ccccc1)C(C)C | -12.7 | 1.16 µM [falling, single point] | 
26 | CCN(CC)S(=O)(=O)c1ccc(N=N/C(C(C)=O)=C(/C)O)cc1 |  | 3.26 µM [rising, partial curve] | 
27 | COc1cc(C(=O)OCC(=O)NCCC2=CCCCC2)ccc1OCC(C)C | 7.54 | 0.146 µM [falling, full curve] | 
28 | O=C(CN(Cc1ccccc1)C(=O)c1ccco1)NCc1ccc(F)cc1 | 45.5 | 20.6 µM [rising, partial curve] | 29.1 µM [rising, single point]
29 | CCCCCCOC(=O)C(C#N)c1nc2ccccc2nc1N1CCOCC1 (centres undefined) | -2.55 | 0.00461 µM [rising, full curve, poor fit] | 
30 | COC(=O)C1=C(C)N(C(C)C)C(=O)C1(NC(=O)C1CCCCC1)C(F)(F)F (centres undefined) |  | 0.00461 µM [falling, full curve, poor fit] | 
31 | COc1ccccc1CNC(=O)C1CCCN(S(C)(=O)=O)C1 (centres undefined) | -51.4 | 29.1 µM [falling, single point] | 29.1 µM [falling, single point]
32 | O=C(Nc1ccc(Cl)c(Cl)c1)c1ccc(Cn2c(=O)[nH]c3ccsc3c2=O)cc1 | -58.1 | 16.4 µM [falling, single point] | 18.4 µM [falling, single point]
33 | CC(C(=O)Nc1ccc(F)c(F)c1F)N(C)CC(=O)Nc1ccccc1Br (centres undefined) | 2.2 |  | 
34 | Cn1c(CN2CCCCC2)nc2cc(NC(=O)c3ccccc3)ccc21 | 163 | 29.1 µM [rising, partial curve] | 
35 | COc1ccc(OCC(=O)Nc2ccc(S(=O)(=O)N3CCCC3)cc2)cc1 | 25 |  | 
36 | O=C(c1cccc(Oc2ccccc2)c1)N1CCN(c2ccccn2)CC1 | 51.8 |  | 29.1 µM [rising, single point]
